{"sequences": {"note": "Chains of the proteins cited; added tags and fusions are not shown.", "UniProt P35462, whole entry, looked up": "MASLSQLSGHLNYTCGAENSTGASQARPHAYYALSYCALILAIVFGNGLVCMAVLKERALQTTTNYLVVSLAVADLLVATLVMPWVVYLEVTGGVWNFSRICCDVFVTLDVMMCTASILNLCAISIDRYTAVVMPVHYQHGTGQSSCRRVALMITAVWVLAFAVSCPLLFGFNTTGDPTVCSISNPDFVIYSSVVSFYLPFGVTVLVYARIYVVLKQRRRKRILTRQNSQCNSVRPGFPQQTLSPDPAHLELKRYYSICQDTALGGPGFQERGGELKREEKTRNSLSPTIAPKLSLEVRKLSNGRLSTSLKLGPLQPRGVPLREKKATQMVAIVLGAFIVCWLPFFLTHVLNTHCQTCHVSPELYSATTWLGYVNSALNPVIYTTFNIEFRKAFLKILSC"}, "source": "PubChem BioAssay AID652054", "about": "(National Center for Advancing Translational Sciences (NCATS), 2013)", "note": "Screen size: about 360,000 compounds; about 9,100 (2.5%) were called active. The inconclusive results got no clear call from the source; some entries with a clear call stand among them for comparison. No stated cut-off is given here; in the data, active means max response below about -50%; inconclusive means no clear call, values can overlap the other calls; inactive means above that. On the % scale 0 is the no-effect control and ±100 the full control effect."}
{"target": "D(3) dopamine receptor (Homo sapiens) (UniProt P35462)", "assay": "qHTS of D3 Dopamine Receptor Antagonist: qHTS", "conditions": "D3R cells, DiscoveRx beta-arrestin luminescence, antagonist mode; active compounds read low", "in_short": "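Cells plated overnight at 1500 cells/well, then exposed to library compounds with dopamine controls for 90 minutes at 37 degrees C. DiscoveRx reagent added for 30–60 minutes at room temperature; luminescence read, quantitative HTS format.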"}
{"compound": "O=C1NN(c2ccc(Br)cc2)C(=O)/C1=C\\c1ccc(O)cc1O", "max response, negative = inhibition": "inconclusive: -32.1%"}
{"compound": "Cc1ccn2c(Nc3ccc4c(c3)OCO4)c(-c3ccccn3)nc2c1", "max response, negative = inhibition": "active: -53.5%"}
{"compound": "Cc1ccsc1C1Nc2ccc3ncccc3c2C2=C1C(=O)CC(C)(C)C2", "note": "(stereo not drawn)", "max response, negative = inhibition": "inconclusive: -33.1%"}
{"compound": "C/C(=N\\NC(=O)c1ccc(Cl)c(Cl)c1)c1ccccn1", "max response, negative = inhibition": "inconclusive: -39.1%"}
{"compound": "Cc1ccc2c(c1)N(S(=O)(=O)c1ccc3c(c1)NC(=O)CC(=O)N3)CCO2", "max response, negative = inhibition": "inactive: -21.7%"}
{"compound": "CCCCC(=O)Nc1nn(CCC)c2nc3ccccc3cc12", "max response, negative = inhibition": "inconclusive: -42%"}
{"compound": "O=C(CSCC(=O)N1CCOCC1)Nc1ccccc1", "max response, negative = inhibition": "inactive: 7.57%"}
{"compound": "CNC[C@@H]1OCc2ccccc2-c2c(n(C)c3ccccc23)C(=O)N([C@H](C)CO)C[C@@H]1C", "max response, negative = inhibition": "inactive: -4.36%"}
{"compound": "COc1ccc2[nH]c(=O)c(CN(CCCN(C)C)C(=O)Nc3ccc(F)cc3)cc2c1", "max response, negative = inhibition": "inconclusive: -35.9%"}
{"compound": "CC(C)(C)c1cc(C(=O)NN)n(Cc2ccc(Cl)cc2Cl)n1", "max response, negative = inhibition": "inconclusive: -45.3%"}
{"compound": "Cc1cccc(NC(=O)/C(=C\\c2ccco2)NC(=O)c2cccs2)c1", "max response, negative = inhibition": "inconclusive: -31%"}
{"compound": "OCC1(Cc2ccc(Cl)cc2)CCN(CC2CC=CCC2)CC1", "note": "(stereo not drawn)", "max response, negative = inhibition": "inconclusive: -40.7%"}
{"compound": "CN(C)c1ccc(/C=N\\Nc2nc(-c3ccccc3)cc(=O)[nH]2)cc1", "max response, negative = inhibition": "inconclusive: -35.9%"}
{"compound": "CN1CCN(c2ccc(NC(=O)COc3ccc(Cl)cc3Cl)cc2)CC1", "max response, negative = inhibition": "inconclusive: -48.4%"}
{"compound": "O=C(c1[nH]c(C(F)(F)F)nc1-c1ccccc1)N1CCN(c2cccc(C(F)(F)F)n2)CC1", "max response, negative = inhibition": "active: -55.5%"}
{"compound": "COc1ccc(C(=O)COC(=O)[C@H](C)NS(=O)(=O)c2ccc(NC(C)=O)cc2)cc1OC", "max response, negative = inhibition": "inactive: 2.82%"}
{"compound": "C/C(COc1ccccc1)=N\\NC(=O)c1nnn(-c2nonc2N)c1CSc1ccccc1", "max response, negative = inhibition": "inactive: 9.23%"}
{"compound": "CCOC(=O)c1ccccc1NS(=O)(=O)c1ccc(S(=O)(=O)N2CCCC2)cc1", "max response, negative = inhibition": "inconclusive: -38.3%"}
{"compound": "O=S(=O)(c1ccc(NC(=S)N/N=C/c2cccc(Oc3ccccc3)c2)cc1)N1CCOCC1", "max response, negative = inhibition": "inconclusive: -31.9%"}
{"compound": "Cc1ccc2sc(N(CCCN(C)C)C(=O)c3ccc(S(=O)(=O)N(C)Cc4ccccc4)cc3)nc2c1C", "max response, negative = inhibition": "inconclusive: -36.2%"}
{"compound": "O=C(/C=C/c1ccccc1[N+](=O)[O-])c1ccc(F)cc1", "max response, negative = inhibition": "inconclusive: -34.6%"}
{"compound": "Cc1ccc(NC2=NCCC2)cc1Cl", "max response, negative = inhibition": "inconclusive: -37.3%"}
{"compound": "C#CCOCCOCCOCCNc1nc(N2CCN(C(=O)C(Cc3cc4ccccc4[nH]3)n3cc(C(N)C(C)CC)nn3)CC2)nc(N2CCN(C(=O)C(Cc3cc4ccccc4[nH]3)n3cc(C(N)C(C)CC)nn3)CC2)n1", "note": "(stereo not drawn)", "max response, negative = inhibition": "inconclusive: -31.5%"}
